Results are given in words; binding and its absence hold for the method and conditions named. Binding seen in cells or lysates may run through a third protein. Some binding calls cover weakened binding; strength is not graded here.
Target: endogenous mouse Trip12 (mouse (endogenous in C2C12)) (UniProt G5E870)
Experiment: co-IP; endogenous proteins, nuclear fractions of C2C12 cells differentiated 48 h in DM; NaCl adjusted to ~150 mM; IP with rabbit anti-TRIP12 or anti-Sox6 (Rabbit TrueBlot Set), anti-GST as negative control; Western blot

Sequences of proteins named here, by UniProt entry; tags and fusion partners are left off.
UniProt G5E870: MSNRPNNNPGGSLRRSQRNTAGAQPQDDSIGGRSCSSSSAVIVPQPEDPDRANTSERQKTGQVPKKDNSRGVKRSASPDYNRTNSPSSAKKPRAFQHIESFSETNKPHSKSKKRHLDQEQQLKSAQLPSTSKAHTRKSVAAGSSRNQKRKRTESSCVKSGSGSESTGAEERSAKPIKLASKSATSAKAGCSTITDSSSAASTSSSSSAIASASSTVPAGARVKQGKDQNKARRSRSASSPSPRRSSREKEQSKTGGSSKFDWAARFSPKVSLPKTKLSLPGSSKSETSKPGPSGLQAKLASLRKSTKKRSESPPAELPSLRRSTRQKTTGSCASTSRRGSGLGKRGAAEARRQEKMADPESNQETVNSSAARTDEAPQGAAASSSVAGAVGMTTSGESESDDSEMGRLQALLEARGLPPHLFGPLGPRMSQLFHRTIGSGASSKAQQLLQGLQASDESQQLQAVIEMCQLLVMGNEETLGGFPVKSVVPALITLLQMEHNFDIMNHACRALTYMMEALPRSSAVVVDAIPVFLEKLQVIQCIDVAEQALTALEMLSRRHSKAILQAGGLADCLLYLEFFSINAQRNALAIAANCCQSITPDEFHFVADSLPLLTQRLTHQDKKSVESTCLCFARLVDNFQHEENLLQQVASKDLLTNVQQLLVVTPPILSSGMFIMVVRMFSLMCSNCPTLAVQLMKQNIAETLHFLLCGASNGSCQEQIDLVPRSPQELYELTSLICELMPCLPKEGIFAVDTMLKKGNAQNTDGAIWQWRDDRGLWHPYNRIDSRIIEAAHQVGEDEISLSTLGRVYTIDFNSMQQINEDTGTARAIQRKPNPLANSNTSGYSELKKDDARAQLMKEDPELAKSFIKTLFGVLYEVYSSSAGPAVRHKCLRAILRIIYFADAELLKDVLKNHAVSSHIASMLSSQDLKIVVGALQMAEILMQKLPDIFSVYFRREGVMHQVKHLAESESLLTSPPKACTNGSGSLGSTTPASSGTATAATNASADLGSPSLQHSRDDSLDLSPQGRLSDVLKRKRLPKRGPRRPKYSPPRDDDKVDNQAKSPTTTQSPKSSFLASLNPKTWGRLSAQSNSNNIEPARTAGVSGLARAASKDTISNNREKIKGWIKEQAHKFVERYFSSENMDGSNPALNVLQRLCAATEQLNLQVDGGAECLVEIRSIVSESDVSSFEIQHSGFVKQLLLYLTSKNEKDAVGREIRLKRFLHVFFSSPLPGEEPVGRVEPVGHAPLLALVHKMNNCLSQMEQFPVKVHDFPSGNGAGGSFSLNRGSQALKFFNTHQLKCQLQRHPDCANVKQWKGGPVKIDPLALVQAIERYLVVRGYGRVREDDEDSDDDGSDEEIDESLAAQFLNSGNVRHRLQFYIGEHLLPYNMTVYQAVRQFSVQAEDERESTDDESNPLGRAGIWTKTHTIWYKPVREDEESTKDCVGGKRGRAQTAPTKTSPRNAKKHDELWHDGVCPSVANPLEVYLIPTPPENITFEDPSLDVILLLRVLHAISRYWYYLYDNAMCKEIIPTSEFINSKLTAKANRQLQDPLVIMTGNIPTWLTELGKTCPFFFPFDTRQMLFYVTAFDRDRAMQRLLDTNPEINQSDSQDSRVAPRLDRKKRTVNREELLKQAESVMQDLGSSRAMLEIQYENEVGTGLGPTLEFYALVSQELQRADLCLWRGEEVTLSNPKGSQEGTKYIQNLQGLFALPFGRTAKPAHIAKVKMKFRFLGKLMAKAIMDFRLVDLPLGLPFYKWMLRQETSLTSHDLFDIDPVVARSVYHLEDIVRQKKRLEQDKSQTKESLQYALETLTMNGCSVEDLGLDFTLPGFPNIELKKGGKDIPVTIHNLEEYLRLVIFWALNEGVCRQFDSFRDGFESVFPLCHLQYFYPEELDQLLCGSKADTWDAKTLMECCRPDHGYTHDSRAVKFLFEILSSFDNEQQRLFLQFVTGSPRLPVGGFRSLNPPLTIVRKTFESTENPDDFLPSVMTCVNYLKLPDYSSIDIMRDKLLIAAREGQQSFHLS
UniProt P40645: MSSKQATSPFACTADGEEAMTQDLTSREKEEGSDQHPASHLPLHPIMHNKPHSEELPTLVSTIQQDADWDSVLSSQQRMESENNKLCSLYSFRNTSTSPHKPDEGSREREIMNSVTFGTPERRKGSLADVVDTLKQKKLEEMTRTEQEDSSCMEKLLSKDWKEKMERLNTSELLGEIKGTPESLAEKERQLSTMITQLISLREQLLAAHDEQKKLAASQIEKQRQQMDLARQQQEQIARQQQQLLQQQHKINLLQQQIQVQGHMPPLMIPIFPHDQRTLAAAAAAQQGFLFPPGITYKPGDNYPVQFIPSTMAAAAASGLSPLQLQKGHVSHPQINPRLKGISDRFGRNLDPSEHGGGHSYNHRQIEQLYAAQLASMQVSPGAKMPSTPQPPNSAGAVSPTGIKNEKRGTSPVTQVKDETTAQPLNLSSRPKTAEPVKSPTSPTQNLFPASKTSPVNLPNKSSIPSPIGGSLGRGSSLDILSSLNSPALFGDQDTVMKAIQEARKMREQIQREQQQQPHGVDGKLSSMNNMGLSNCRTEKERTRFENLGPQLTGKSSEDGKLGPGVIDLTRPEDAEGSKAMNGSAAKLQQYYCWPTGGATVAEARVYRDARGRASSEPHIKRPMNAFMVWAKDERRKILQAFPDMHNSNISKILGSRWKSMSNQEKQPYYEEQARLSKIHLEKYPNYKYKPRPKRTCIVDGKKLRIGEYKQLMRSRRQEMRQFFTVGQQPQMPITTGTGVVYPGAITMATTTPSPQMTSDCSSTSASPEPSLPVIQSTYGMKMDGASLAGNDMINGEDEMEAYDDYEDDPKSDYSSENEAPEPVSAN

binding: binds
Substance: endogenous mouse Sox6 (from UniProt P40645 1-827)
